Source: the supplement of paper PMC8728848
Some of the results follow.

How the values were obtained:
Test in all cases: glycan array binding signal (z-score within array); higher = stronger binding
Conditions in all cases: glycan notation: IUPAC condensed, linker removed
[1] = target: Fuc(a1-2)Gal6S(b1-3)GlcNAc
Outline: (§1)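 Arrays were curated from the Consortium for Functional Glycomics database, 3228 in total, and kept only where the protein sequence was available. Binding is expressed as a within-array Z-score. This score was averaged across arrays of the same protein sequence at different concentrations or buffers and across linkers, and negative values can be read as non-binding.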

[2] = target: Fuc(a1-2)Gal6S(b1-3)GlcNAc6S
Outline: as §1

[3] = target: Fuc(a1-2)Gal6S(b1-4)Glc
Outline: as §1

[4] = target: Fuc(a1-2)Gal6S(b1-4)Glc6S
Outline: as §1

[5] = target: Fuc(a1-2)[Gal(a1-3)]Gal
Outline: as §1

[6] = target: Fuc(a1-2)[Gal(a1-3)]Gal(b1-3)GalNAc
Outline: as §1

[7] = target: Fuc(a1-2)[Gal(a1-3)]Gal(b1-3)GalNAc(b1-3)Gal(a1-4)Gal(b1-4)Glc
Outline: as §1

[8] = target: Fuc(a1-2)[Gal(a1-3)]Gal(b1-3)GlcNAc
Outline: as §1

[9] = target: Fuc(a1-2)[Gal(a1-3)]Gal(b1-3)GlcNAc(b1-2)Man(a1-3)[Fuc(a1-2)[Gal(a1-3)]Gal(b1-3)GlcNAc(b1-2)Man(a1-6)]Man(b1-4)GlcNAc(b1-4)GlcNAc
Outline: as §1

[10] = target: Fuc(a1-2)[Gal(a1-3)]Gal(b1-3)GlcNAc(b1-2)Man(a1-3)[Fuc(a1-2)[Gal(a1-3)]Gal(b1-3)GlcNAc(b1-2)Man(a1-6)]Man(b1-4)GlcNAc(b1-4)[Fuc(a1-6)]GlcNAc
Outline: as §1

[11] = target: Fuc(a1-2)[Gal(a1-3)]Gal(b1-3)GlcNAc(b1-3)GalNAc
Outline: as §1

[12] = target: Fuc(a1-2)[Gal(a1-3)]Gal(b1-3)GlcNAc(b1-6)GalNAc
Outline: as §1

[13] = target: Fuc(a1-2)[Gal(a1-3)]Gal(b1-4)Glc
Outline: as §1

[14] = target: Fuc(a1-2)[Gal(a1-3)]Gal(b1-4)GlcNAc
Outline: as §1

[15] = target: Fuc(a1-2)[Gal(a1-3)]Gal(b1-4)GlcNAc(b1-2)Man
Outline: as §1

[16] = target: Fuc(a1-2)[Gal(a1-3)]Gal(b1-4)GlcNAc(b1-2)Man(a1-3)[Fuc(a1-2)[Gal(a1-3)]Gal(b1-4)GlcNAc(b1-2)Man(a1-6)]Man(b1-4)GlcNAc(b1-4)GlcNAc
Outline: as §1

[17] = target: Fuc(a1-2)[Gal(a1-3)]Gal(b1-4)GlcNAc(b1-2)Man(a1-3)[Fuc(a1-2)[Gal(a1-3)]Gal(b1-4)GlcNAc(b1-2)Man(a1-6)]Man(b1-4)GlcNAc(b1-4)[Fuc(a1-6)]GlcNAc
Outline: as §1

[18] = target: Fuc(a1-2)[Gal(a1-3)]Gal(b1-4)GlcNAc(b1-3)GalNAc
Outline: as §1

[19] = target: Fuc(a1-2)[Gal(a1-3)]Gal(b1-4)GlcNAc(b1-3)[Fuc(a1-2)[Gal(a1-3)]Gal(b1-4)GlcNAc(b1-6)]GalNAc
Outline: as §1

[20] = target: Fuc(a1-2)[Gal(a1-3)]Gal(b1-4)GlcNAc(b1-6)GalNAc
Outline: as §1

[21] = target: Fuc(a1-2)[Gal(a1-3)]Gal(b1-4)[Fuc(a1-3)]Glc
Outline: as §1

[22] = target: Fuc(a1-2)[Gal(a1-3)]Gal(b1-4)[Fuc(a1-3)]GlcNAc
Outline: as §1

[23] = target: Fuc(a1-2)[Gal(a1-3)]Gal(b1-4)[Fuc(a1-3)]GlcNAc(b1-3)GalNAc
Outline: as §1

[24] = target: Fuc(a1-2)[Gal(a1-4)]Gal(b1-4)GlcNAc
Outline: as §1

[25] = target: Fuc(a1-2)[GalNAc(a1-3)]Gal
Outline: as §1

[26] = target: Fuc(a1-2)[GalNAc(a1-3)]Gal(b1-3)GalNAc(a1-3)[Fuc(a1-2)]Gal(b1-4)GlcNAc
Outline: as §1

[27] = target: Fuc(a1-2)[GalNAc(a1-3)]Gal(b1-3)GalNAc(b1-3)Gal(a1-4)Gal(b1-4)Glc
Outline: as §1

[28] = target: Fuc(a1-2)[GalNAc(a1-3)]Gal(b1-3)GlcNAc
Outline: as §1

[29] = target: Fuc(a1-2)[GalNAc(a1-3)]Gal(b1-3)GlcNAc(b1-2)Man(a1-3)[Fuc(a1-2)[GalNAc(a1-3)]Gal(b1-3)GlcNAc(b1-2)Man(a1-6)]Man(b1-4)GlcNAc(b1-4)GlcNAc
Outline: as §1

[30] = target: Fuc(a1-2)[GalNAc(a1-3)]Gal(b1-3)GlcNAc(b1-2)Man(a1-3)[Fuc(a1-2)[GalNAc(a1-3)]Gal(b1-3)GlcNAc(b1-2)Man(a1-6)]Man(b1-4)GlcNAc(b1-4)[Fuc(a1-6)]GlcNAc
Outline: as §1

[31] = target: Fuc(a1-2)[GalNAc(a1-3)]Gal(b1-3)GlcNAc(b1-3)GalNAc
Outline: as §1

[32] = target: Fuc(a1-2)[GalNAc(a1-3)]Gal(b1-3)GlcNAc(b1-6)GalNAc
Outline: as §1

[33] = target: Fuc(a1-2)[GalNAc(a1-3)]Gal(b1-4)Glc
Outline: as §1

[34] = target: Fuc(a1-2)[GalNAc(a1-3)]Gal(b1-4)GlcNAc
Outline: as §1

[35] = target: Fuc(a1-2)[GalNAc(a1-3)]Gal(b1-4)GlcNAc(b1-2)Man
Outline: as §1

[36] = target: Fuc(a1-2)[GalNAc(a1-3)]Gal(b1-4)GlcNAc(b1-2)Man(a1-3)[Fuc(a1-2)[GalNAc(a1-3)]Gal(b1-4)GlcNAc(b1-2)Man(a1-6)]Man(b1-4)GlcNAc(b1-4)GlcNAc
Outline: as §1

[37] = target: Fuc(a1-2)[GalNAc(a1-3)]Gal(b1-4)GlcNAc(b1-2)Man(a1-3)[Fuc(a1-2)[GalNAc(a1-3)]Gal(b1-4)GlcNAc(b1-2)Man(a1-6)]Man(b1-4)GlcNAc(b1-4)[Fuc(a1-6)]GlcNAc
Outline: as §1

[38] = target: Fuc(a1-2)[GalNAc(a1-3)]Gal(b1-4)GlcNAc(b1-3)Gal(b1-4)GlcNAc
Outline: as §1

[39] = target: Fuc(a1-2)[GalNAc(a1-3)]Gal(b1-4)GlcNAc(b1-3)Gal(b1-4)GlcNAc(b1-3)Gal(b1-4)GlcNAc
Outline: as §1

[40] = target: Fuc(a1-2)[GalNAc(a1-3)]Gal(b1-4)GlcNAc(b1-3)GalNAc
Outline: as §1

[41] = target: Fuc(a1-2)[GalNAc(a1-3)]Gal(b1-4)GlcNAc(b1-3)[Fuc(a1-2)[GalNAc(a1-3)]Gal(b1-4)GlcNAc(b1-6)]GalNAc
Outline: as §1

[42] = target: Fuc(a1-2)[GalNAc(a1-3)]Gal(b1-4)GlcNAc(b1-6)GalNAc
Outline: as §1

[43] = target: Fuc(a1-2)[GalNAc(a1-3)]Gal(b1-4)[Fuc(a1-3)]GlcNAc
Outline: as §1

[44] = target: Fuc(a1-2)[GalNAc(a1-3)]Gal(b1-4)[Fuc(a1-3)]GlcNAc(b1-3)GalNAc
Outline: as §1

[45] = target: Fuc(a1-2)[GalNAc(a1-4)]Gal(b1-4)GlcNAc
Outline: as §1

B1: OS9-MRH (Homo sapiens), Q13438 (protein)
chain: IPELLSPMRDAPCLLKTKDWWTYEFCYGRHIQQYHMEDSEIKGEVLYLGYYQSAFDWDDETAKASKQHRLKRYHSQTYGNGSKCDLNGRPREAEVRFLCDEGAGISGDYIDRVDEPLSCSYVLTIRTPRLCPHPLLRPPPSAAPQAI
glycan array binding signal (z-score) [1]: -0.833
glycan array binding signal (z-score) [2]: -0.021
glycan array binding signal (z-score) [3]: -0.494
glycan array binding signal (z-score) [4]: 1.94
glycan array binding signal (z-score) [5]: -0.286
glycan array binding signal (z-score) [6]: -0.186
glycan array binding signal (z-score) [7]: -1.8
glycan array binding signal (z-score) [8]: 1.15
glycan array binding signal (z-score) [9]: 0.925
glycan array binding signal (z-score) [10]: -0.383
glycan array binding signal (z-score) [11]: -1.21
glycan array binding signal (z-score) [12]: 0.729
glycan array binding signal (z-score) [13]: 0.701
glycan array binding signal (z-score) [14]: 0.493
glycan array binding signal (z-score) [15]: 0.31
glycan array binding signal (z-score) [16]: -1.81
glycan array binding signal (z-score) [17]: -1.83
glycan array binding signal (z-score) [18]: 0.227
glycan array binding signal (z-score) [19]: 0.015
glycan array binding signal (z-score) [20]: -1.79
glycan array binding signal (z-score) [21]: -0.257
glycan array binding signal (z-score) [22]: 1.44
glycan array binding signal (z-score) [23]: -0.319
glycan array binding signal (z-score) [24]: 0.547
glycan array binding signal (z-score) [25]: -0.072
glycan array binding signal (z-score) [26]: -0.326
glycan array binding signal (z-score) [27]: -0.481
glycan array binding signal (z-score) [28]: -1.52
glycan array binding signal (z-score) [29]: 0.767
glycan array binding signal (z-score) [30]: 0.172
glycan array binding signal (z-score) [31]: 0.619
glycan array binding signal (z-score) [32]: -1.4
glycan array binding signal (z-score) [33]: 0.735
glycan array binding signal (z-score) [34]: -0.169
glycan array binding signal (z-score) [35]: -1.1
glycan array binding signal (z-score) [36]: 0.281
glycan array binding signal (z-score) [37]: -0.948
glycan array binding signal (z-score) [38]: -1.56
glycan array binding signal (z-score) [39]: -1.03
glycan array binding signal (z-score) [40]: 0.338
glycan array binding signal (z-score) [41]: -2.2
glycan array binding signal (z-score) [42]: -0.599
glycan array binding signal (z-score) [43]: -0.402
glycan array binding signal (z-score) [44]: -0.617
glycan array binding signal (z-score) [45]: 0.113
